Test results: the supplement of paper PMC9454738
The other results are listed elsewhere or left out. Repeats in this data set agree poorly, so a single value says little.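 Assays used MDA-MB-231 triple-negative breast cancer cells and their brain-metastatic line MDA-MB-231BRM, stably carrying empty vector, full-length GLI1 or truncated tGLI1. After 48 h, viability was read with CellTiter-Blue and normalized to 1% DMSO vehicle. tGLI1 selectivity meant viability fell 20% more in tGLI1 cells than in vector and GLI1 cells.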

Experiments:
Assay in all cases: cell viability relative to vehicle (DMSO) control (fraction); higher = more viable cells (less growth inhibition)
Conditions in all cases: treatment time 48 h
MDA-MB-231 GLI1 = test system: MDA-MB-231 GLI1
MDA-MB-231 Vector = test system: MDA-MB-231 Vector
MDA-MB-231 tGLI1 = test system: MDA-MB-231 tGLI1
MDA-MB-231BRM GLI1 = test system: MDA-MB-231BRM GLI1
MDA-MB-231BRM Vector = test system: MDA-MB-231BRM Vector
MDA-MB-231BRM tGLI1 = test system: MDA-MB-231BRM tGLI1

SMILES | cell viability (MDA-MB-231 GLI1; 0.05 µM) | cell viability (MDA-MB-231 GLI1; 0.5 µM) | cell viability (MDA-MB-231 GLI1; 5 µM) | cell viability (MDA-MB-231 Vector; 0.05 µM) | cell viability (MDA-MB-231 Vector; 0.5 µM) | cell viability (MDA-MB-231 Vector; 5 µM) | cell viability (MDA-MB-231 tGLI1; 0.05 µM) | cell viability (MDA-MB-231 tGLI1; 0.5 µM) | cell viability (MDA-MB-231 tGLI1; 5 µM) | cell viability (MDA-MB-231BRM GLI1; 0.05 µM) | cell viability (MDA-MB-231BRM GLI1; 0.5 µM) | cell viability (MDA-MB-231BRM GLI1; 5 µM) | cell viability (MDA-MB-231BRM Vector; 0.05 µM) | cell viability (MDA-MB-231BRM Vector; 0.5 µM) | cell viability (MDA-MB-231BRM Vector; 5 µM) | cell viability (MDA-MB-231BRM tGLI1; 0.05 µM) | cell viability (MDA-MB-231BRM tGLI1; 0.5 µM) | cell viability (MDA-MB-231BRM tGLI1; 5 µM)
CS(=O)(=O)c1ccc(C(=O)Nc2ccc(Cl)c(-c3ccccn3)c2)c(Cl)c1 [Vismodegib (GDC-0449)] | 1.31 | 1.14 | 1.2 | 1.33 | 1.2 | 1.21 | 1.14 | 1.14 | 1.15 | 1.03 | 1.01 | 0.938 | 0.981 | 1.04 | 0.966 | 0.993 | 1.05 | 1.01
C[C@]1(O)C[C@@H](c2nc(-c3ccc4ccc(-c5ccccc5)nc4c3)c3c(N)nccn32)C1 [OSI-906 (Linsitinib)] | 1.46 | 1.41 | 1.03 | 1.29 | 1.2 | 0.699 | 1.24 | 1.35 | 0.735 | 0.922 | 1 | 0.982 | 0.927 | 0.985 | 0.9 | 0.987 | 0.891 | 0.91
O=C(Nc1cccc(Nc2ncc(Br)c(NCCc3cnc[nH]3)n2)c1)N1CCCC1 | 1.24 | 1.24 | 0.842 | 1.7 | 1.15 | 0.811 | 1.25 | 1.1 | 0.783 | 1.19 | 1.02 | 0.851 | 1.18 | 1.02 | 0.82 | 0.992 | 1.06 | 0.714
COc1ccc2c(Oc3ccc(NC(=O)c4c(C)n(CC(C)(C)O)n(-c5ccccc5)c4=O)nc3)ccnc2c1 | 1.01 | 1.01 | 0.621 | 0.739 | 1.2 | 0.914 | 1.18 | 0.901 | 0.899 | 0.996 | 1.02 | 1.04 | 1.03 | 0.972 | 0.904 | 0.967 | 1.06 | 0.841
CC(=O)O[C@@]12CO[C@@H]1C[C@H](O)[C@@]1(C)C(=O)[C@H](O)C3=C(C)[C@@H](OC(=O)[C@H](O)[C@@H](NC(=O)OC(C)(C)C)c4ccccc4)C[C@@](O)([C@@H](OC(=O)c4ccccc4)[C@H]21)C3(C)C [Docetaxel (Taxotere)] | 0 | -0.0584 | 0.00987 | -0.29 | -0.301 | -0.173 | -0.0867 | -0.155 | -0.0643 | 0.891 | 0.833 | 0.754 | 0.904 | 0.817 | 0.904 | 0.941 | 0.809 | 0.879
CNC(=O)c1ccc(C)c(-n2c(C)cc(OCc3ccc(F)cc3F)c(Br)c2=O)c1 | 1.24 | 0.436 | 1.22 | 1.3 | 1.25 | 1.97 | 1.43 | 1.2 | 1.19 | 0.994 | 1 | 1.04 | 0.997 | 1.05 | 1.13 | 1.08 | 1.12 | 0.929
CCc1cccc(CC)c1NC(=O)N1Cc2[nH]nc(NC(=O)c3ccc(N4CCN(C)CC4)cc3)c2C1 | 1.36 | 1.1 | 0.148 | 1.82 | 1.03 | 0.697 | 1.3 | 1.05 | 0.598 | 1.13 | 1.08 | 0.925 | 1.13 | 0.977 | 0.904 | 1.01 | 1.08 | 0.883
CCCS(=O)(=O)Nc1ccc(F)c(C(=O)c2c[nH]c3ncc(-c4ccc(Cl)cc4)cc23)c1F [Vemurafenib (PLX4032)] | 1.22 | 1.08 | 1.23 | 1.5 | 1.14 | 1.13 | 0.881 | 1.05 | 1.04 | 1.08 | 1.05 | 0.988 | 1.06 | 0.993 | 0.977 | 1.03 | 1.05 | 1.03
COc1cc2c(Oc3ccc(NC(=O)C4(C(=O)Nc5ccc(F)cc5)CC4)cc3F)ccnc2cc1OCCCN1CCOCC1 | 1.38 | 1.02 | 0.0897 | 1.28 | 0.799 | 0.167 | 1.16 | 0.984 | 0.069 | 0.97 | 0.914 | 0.826 | 0.93 | 0.937 | 0.778 | 0.901 | 0.821 | 0.723
C=CC(=O)Nc1ccc(CN2C(=O)N(c3cc(OC)cc(OC)c3)Cc3cnc(Nc4ccc(N5CCN(C)CC5)cc4)nc32)cc1 | 2.16 | 2.83 | 1.15 | 1.12 | 1.27 | 0.565 | 1.29 | 1.28 | 0.571 | 0.814 | 0.7 | 0.686 | 0.879 | 0.706 | 0.688 | 1.21 | 1.04 | 1.06
CC#CC(=O)N1CC[C@@H](n2c(=O)n(-c3ccc(Oc4ccccc4)cc3)c3c(N)ncnc32)C1 | 2.13 | 3.03 | 1.77 | 1.26 | 1.13 | 1.14 | 1.35 | 1.47 | 1.27 | 0.787 | 0.798 | 0.615 | 0.868 | 0.714 | 0.699 | 1.1 | 1.05 | 1.08
O=C(c1ccc(F)c(F)c1Nc1ccc(I)cc1F)N1CC(O)([C@@H]2CCCCN2)C1 [Cobimetinib (GDC-0973, RG7420)] | 1.49 | 1.65 | 0.79 | 0.812 | 0.622 | 0.411 | 0.938 | 0.779 | 0.546 | 0.847 | 0.877 | 0.624 | 0.956 | 0.824 | 0.721 | 1.24 | 1.21 | 1.21
Cc1cc(N2CCOCC2)cc2[nH]c(-c3c(NC[C@@H](O)c4cccc(Cl)c4)cc[nH]c3=O)nc12 | 1.01 | 1.44 | 0.225 | 0.964 | 0.786 | 0.201 | 0.767 | 0.952 | 0.196 | 0.887 | 0.856 | 0.793 | 0.879 | 0.511 | 0.773 | 0.905 | 0.833 | 0.664
Cc1csc(-c2nnc(Nc3ccc(Oc4ncccc4-c4ccnc(N)n4)cc3)c3ccccc23)c1 | 0.87 | 0.88 | 0.416 | 0.95 | 1.02 | 0.344 | 1.03 | 0.9 | 0.414 | 0.987 | 0.889 | 0.435 | 0.915 | 0.872 | 0.45 | 1.05 | 0.915 | 0.412

Looked up by compound from the list above, 2 records:
SMILES | cell viability (MDA-MB-231 GLI1; 0.05 µM) | cell viability (MDA-MB-231 GLI1; 0.5 µM) | cell viability (MDA-MB-231 GLI1; 5 µM) | cell viability (MDA-MB-231 Vector; 0.05 µM) | cell viability (MDA-MB-231 Vector; 0.5 µM) | cell viability (MDA-MB-231 Vector; 5 µM) | cell viability (MDA-MB-231 tGLI1; 0.05 µM) | cell viability (MDA-MB-231 tGLI1; 0.5 µM) | cell viability (MDA-MB-231 tGLI1; 5 µM) | cell viability (MDA-MB-231BRM GLI1; 0.05 µM) | cell viability (MDA-MB-231BRM GLI1; 0.5 µM) | cell viability (MDA-MB-231BRM GLI1; 5 µM) | cell viability (MDA-MB-231BRM Vector; 0.05 µM) | cell viability (MDA-MB-231BRM Vector; 0.5 µM) | cell viability (MDA-MB-231BRM Vector; 5 µM) | cell viability (MDA-MB-231BRM tGLI1; 0.05 µM) | cell viability (MDA-MB-231BRM tGLI1; 0.5 µM) | cell viability (MDA-MB-231BRM tGLI1; 5 µM)
C=CC(=O)Nc1ccc(CN2C(=O)N(c3cc(OC)cc(OC)c3)Cc3cnc(Nc4ccc(N5CCN(C)CC5)cc4)nc32)cc1 | 2.16 | 2.83 | 1.15 | 1.12 | 1.27 | 0.565 | 1.29 | 1.28 | 0.571 | 0.814 | 0.7 | 0.686 | 0.879 | 0.706 | 0.688 | 1.21 | 1.04 | 1.06
O=C(c1ccc(F)c(F)c1Nc1ccc(I)cc1F)N1CC(O)([C@@H]2CCCCN2)C1 [Cobimetinib (GDC-0973, RG7420)] | 1.49 | 1.65 | 0.79 | 0.812 | 0.622 | 0.411 | 0.938 | 0.779 | 0.546 | 0.847 | 0.877 | 0.624 | 0.956 | 0.824 | 0.721 | 1.24 | 1.21 | 1.21
